Patent publication US9796659B2, “Derivatives of polyhydroxy compounds” (RATIOPHARM GMBH, priority 2014, dated 2017)

Experiments:
[1] = system: Caco-2 monolayers; assay: in vitro; settings: human, Caco-2, 90 min
Protocol: (§1) The membrane permeability was investigated in Caco-2 monolayers. DMF was investigated in a separate experiment for comparison.
(§2) […] The test concentration in the apical medium was 250 μM. […] Furthermore, a significant metabolism or degradation of the test compound was expected and therefore the parent compound as well as MMF was determined in the acceptor compartment (basolateral medium). Sampling time points were 15, 45 and 90 min.

[2] = in vitro; settings: human, Caco-2, Papp × 10^−6 [cm/sec] mean ± s.d.
Protocol: as §1, §2

Papp × 10^−6 [cm/sec] mean ± s.d. [1]: 0.8 ± 0.2 10^−6 cm/sec
Papp A→B at 90 min, 250 μM [2]: 0.3 ± 0.1 ×10⁻⁶ cm/s
Papp B→A at 90 min [2]: 1 ± 0.1 ×10⁻⁶ cm/s
Compound: CC(C)NCC(O)COc1ccc(CC(N)=O)cc1 (stereo not drawn) [Atenolol, atenolol]
